# Assay results as given in paper PMC11564821.
# Sequences of proteins named here, by UniProt entry; tags and fusion partners are left off.
# UniProt P19474: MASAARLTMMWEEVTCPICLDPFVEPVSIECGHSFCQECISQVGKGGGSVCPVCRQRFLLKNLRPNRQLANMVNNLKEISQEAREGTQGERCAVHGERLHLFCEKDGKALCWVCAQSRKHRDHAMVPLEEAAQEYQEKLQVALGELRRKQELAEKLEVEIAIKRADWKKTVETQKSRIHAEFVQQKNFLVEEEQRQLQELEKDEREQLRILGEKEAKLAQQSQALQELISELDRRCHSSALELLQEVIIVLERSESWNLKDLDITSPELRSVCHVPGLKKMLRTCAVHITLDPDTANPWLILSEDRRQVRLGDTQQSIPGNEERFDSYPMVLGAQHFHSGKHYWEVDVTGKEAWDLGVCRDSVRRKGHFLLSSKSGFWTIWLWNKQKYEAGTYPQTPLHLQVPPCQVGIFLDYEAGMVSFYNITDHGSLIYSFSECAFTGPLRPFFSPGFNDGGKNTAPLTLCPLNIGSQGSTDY
# These are yes or no findings as the source states them, for the method shown. Binding seen in cells or lysates may run through a third protein. Some results given as binding are weak or reduced against the parent protein; the word gives no strength. Tags and fused reporters may be left off the sequences shown.
# Experiments:
# [1] = molecular target: T1, HA-MDM4 (overexpressed in HEK293T) (UniProt O15151); test: co-IP; two tagged proteins overexpressed together in HEK293T, each in turn immunoprecipitated by its tag; lysate supernatant with beads at 4 °C overnight, five washes with lysis buffer, immunoblot
# T1 sequence: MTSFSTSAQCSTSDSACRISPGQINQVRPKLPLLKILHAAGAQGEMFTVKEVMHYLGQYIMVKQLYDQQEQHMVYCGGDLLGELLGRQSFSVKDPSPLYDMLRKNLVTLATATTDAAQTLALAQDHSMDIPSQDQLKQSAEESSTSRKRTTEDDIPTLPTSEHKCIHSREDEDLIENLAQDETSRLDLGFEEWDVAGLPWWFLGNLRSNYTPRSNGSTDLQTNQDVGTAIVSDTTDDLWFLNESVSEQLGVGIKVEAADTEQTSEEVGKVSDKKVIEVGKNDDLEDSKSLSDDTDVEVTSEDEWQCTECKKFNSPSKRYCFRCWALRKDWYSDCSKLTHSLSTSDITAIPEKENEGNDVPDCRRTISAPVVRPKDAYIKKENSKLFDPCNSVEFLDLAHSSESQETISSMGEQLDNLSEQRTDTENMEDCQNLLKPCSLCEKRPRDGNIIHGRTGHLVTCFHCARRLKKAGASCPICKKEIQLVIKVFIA
# [2] = molecular target: T2, HA-MDM4 (overexpressed in HT29) (UniProt O15151); test: co-IP; tagged protein overexpressed in HT29 and immunoprecipitated by its tag, endogenous partner detected by immunoblot; beads at 4 °C overnight, five washes with lysis buffer
# T2 sequence: T1 sequence
binding [1],binding [2],Substance
binds,,Myc-TRIM21 (overexpressed in HEK293T) (from UniProt P19474 1-475)
,binds,endogenous TRIM21 (HT29) (from UniProt P19474 1-475)
